Some peptides are written in HELM: one residue between dots, names in brackets for other building blocks, links after the first $.

This data set in a line: peptide synthesis. Conditions: whole synthesis.
For the substance “PEPTIDE1{A.G.C.K.N.[Msa].[Msa].W.K.T.[Msa].T.S.C}$PEPTIDE1,PEPTIDE1,3:R3-14:R3$$$V2.0”, the crude yield is 44% and the “final HPLC purity” value turned out to be 95%.
For [L-Msa6,11]-SRIF, the crude yield is listed as 44% and the “final HPLC purity” value worked out at 99%.
For “PEPTIDE1{A.G.C.K.N.[Msa].F.W.K.T.F.T.S.C}$PEPTIDE1,PEPTIDE1,3:R3-14:R3$$$V2.0” the same measures were 60% and 95%.
With [L-Msa7,11]-SRIF, the crude yield was determined as 44% and the “final HPLC purity” value amounted to 99%.
In the case of [L-Msa6,7]-SRIF, the crude yield is on record as 20% and the “final HPLC purity” value was 98%.
Consider “PEPTIDE1{A.G.C.K.N.F.F.W.K.T.[Msa].T.S.C}$PEPTIDE1,PEPTIDE1,3:R3-14:R3$$$V2.0”, for which the crude yield was determined as 44% and the “final HPLC purity” value came to 99%.

For the origin of these results see PMC6270305 (Molecules, 2013).
